Data: the supplement of paper PMC10849652
Some of the results follow.

Protein sequences, listed by entry. Tags and fused reporters are not part of them. Lines headed by an entry give the natural chain unless they say otherwise; changes in a name come on top.
UniProt Q2TAL8: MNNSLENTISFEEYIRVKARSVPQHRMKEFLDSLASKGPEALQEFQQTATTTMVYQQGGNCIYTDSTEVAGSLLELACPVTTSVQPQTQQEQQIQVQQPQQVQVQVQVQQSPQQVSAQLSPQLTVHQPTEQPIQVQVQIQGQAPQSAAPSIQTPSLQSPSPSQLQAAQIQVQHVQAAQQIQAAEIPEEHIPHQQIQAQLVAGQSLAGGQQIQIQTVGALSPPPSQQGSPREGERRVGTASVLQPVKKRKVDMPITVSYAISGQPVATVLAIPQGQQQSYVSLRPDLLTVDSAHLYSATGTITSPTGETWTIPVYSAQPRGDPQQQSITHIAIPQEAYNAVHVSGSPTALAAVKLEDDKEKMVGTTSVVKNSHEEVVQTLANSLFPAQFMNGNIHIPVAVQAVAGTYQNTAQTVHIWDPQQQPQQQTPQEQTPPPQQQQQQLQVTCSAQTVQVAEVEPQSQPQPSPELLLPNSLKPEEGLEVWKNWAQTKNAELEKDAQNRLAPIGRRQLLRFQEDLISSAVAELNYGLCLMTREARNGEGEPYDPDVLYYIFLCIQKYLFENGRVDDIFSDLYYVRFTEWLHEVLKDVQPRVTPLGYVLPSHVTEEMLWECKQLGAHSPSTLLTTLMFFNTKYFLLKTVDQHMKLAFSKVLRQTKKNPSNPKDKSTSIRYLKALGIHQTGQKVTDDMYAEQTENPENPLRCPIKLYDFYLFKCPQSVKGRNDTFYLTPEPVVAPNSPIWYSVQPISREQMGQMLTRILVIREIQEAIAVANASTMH
UniProt P20336: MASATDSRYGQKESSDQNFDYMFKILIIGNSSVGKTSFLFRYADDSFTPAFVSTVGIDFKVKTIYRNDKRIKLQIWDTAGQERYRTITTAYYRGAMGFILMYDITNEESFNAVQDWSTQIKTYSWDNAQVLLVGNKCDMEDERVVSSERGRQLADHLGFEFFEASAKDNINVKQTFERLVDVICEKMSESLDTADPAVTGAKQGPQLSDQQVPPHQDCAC
UniProt Q6VN20, whole entry, looked up: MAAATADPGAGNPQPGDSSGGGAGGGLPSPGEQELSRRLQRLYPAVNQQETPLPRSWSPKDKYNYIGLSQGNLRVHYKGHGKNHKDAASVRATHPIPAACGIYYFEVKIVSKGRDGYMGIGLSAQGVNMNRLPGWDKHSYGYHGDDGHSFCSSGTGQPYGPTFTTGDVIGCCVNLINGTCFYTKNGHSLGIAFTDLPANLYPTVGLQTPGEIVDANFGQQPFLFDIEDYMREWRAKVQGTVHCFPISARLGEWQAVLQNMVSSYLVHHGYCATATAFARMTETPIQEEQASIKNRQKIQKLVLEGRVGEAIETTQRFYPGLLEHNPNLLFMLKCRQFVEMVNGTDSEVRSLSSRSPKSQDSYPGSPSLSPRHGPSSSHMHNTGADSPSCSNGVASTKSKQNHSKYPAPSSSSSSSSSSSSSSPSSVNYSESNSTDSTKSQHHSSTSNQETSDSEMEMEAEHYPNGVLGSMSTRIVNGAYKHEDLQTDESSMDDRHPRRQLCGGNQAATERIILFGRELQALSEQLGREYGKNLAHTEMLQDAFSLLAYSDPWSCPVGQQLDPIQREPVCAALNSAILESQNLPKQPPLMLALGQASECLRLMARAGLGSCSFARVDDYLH
UniProt Q9BTL3: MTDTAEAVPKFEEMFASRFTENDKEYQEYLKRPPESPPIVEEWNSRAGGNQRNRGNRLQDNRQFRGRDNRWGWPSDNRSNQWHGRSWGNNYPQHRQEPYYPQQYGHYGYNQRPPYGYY
UniProt P62820, whole entry, looked up: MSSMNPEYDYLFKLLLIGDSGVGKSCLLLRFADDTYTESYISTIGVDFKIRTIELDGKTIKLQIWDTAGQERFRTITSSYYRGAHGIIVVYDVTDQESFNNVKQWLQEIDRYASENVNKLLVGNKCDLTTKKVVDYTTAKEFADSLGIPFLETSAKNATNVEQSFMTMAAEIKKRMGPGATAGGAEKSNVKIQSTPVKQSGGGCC
UniProt Q8WUD1: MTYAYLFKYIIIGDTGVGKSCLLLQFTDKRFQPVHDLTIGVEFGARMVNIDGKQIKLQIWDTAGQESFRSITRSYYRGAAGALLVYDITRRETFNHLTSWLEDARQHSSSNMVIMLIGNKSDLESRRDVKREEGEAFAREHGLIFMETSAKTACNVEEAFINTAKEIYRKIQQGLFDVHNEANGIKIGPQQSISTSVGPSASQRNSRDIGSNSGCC
UniProt P11233: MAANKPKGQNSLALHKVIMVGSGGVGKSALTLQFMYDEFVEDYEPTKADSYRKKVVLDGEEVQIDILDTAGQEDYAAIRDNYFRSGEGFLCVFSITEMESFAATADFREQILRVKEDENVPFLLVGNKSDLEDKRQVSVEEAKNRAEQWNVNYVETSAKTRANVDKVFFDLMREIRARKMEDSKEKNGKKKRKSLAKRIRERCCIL
UniProt P47897: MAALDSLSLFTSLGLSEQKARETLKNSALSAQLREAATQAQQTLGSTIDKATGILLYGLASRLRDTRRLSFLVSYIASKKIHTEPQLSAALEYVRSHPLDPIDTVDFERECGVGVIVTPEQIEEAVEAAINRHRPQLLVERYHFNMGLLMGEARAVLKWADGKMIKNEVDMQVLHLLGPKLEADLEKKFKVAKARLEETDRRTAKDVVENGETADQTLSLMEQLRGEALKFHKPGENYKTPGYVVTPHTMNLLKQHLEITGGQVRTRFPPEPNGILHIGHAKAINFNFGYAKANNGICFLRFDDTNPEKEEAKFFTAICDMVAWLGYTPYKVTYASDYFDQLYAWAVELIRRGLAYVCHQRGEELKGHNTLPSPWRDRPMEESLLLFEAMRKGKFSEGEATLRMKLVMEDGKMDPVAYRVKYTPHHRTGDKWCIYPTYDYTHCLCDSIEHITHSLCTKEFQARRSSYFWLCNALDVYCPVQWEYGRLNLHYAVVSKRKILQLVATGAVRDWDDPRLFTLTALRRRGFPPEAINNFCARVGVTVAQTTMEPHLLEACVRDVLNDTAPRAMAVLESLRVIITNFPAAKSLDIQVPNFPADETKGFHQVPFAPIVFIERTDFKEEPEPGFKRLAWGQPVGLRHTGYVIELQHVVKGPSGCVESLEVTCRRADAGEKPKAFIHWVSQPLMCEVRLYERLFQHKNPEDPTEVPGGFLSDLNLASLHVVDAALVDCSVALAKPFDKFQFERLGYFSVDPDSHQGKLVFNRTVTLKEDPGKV
UniProt P61019: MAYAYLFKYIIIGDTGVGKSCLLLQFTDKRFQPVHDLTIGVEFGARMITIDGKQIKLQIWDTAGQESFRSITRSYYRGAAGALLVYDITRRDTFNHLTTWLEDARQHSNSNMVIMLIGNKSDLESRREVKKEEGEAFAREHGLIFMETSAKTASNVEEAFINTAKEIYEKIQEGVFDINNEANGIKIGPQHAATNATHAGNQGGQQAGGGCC
UniProt Q92696: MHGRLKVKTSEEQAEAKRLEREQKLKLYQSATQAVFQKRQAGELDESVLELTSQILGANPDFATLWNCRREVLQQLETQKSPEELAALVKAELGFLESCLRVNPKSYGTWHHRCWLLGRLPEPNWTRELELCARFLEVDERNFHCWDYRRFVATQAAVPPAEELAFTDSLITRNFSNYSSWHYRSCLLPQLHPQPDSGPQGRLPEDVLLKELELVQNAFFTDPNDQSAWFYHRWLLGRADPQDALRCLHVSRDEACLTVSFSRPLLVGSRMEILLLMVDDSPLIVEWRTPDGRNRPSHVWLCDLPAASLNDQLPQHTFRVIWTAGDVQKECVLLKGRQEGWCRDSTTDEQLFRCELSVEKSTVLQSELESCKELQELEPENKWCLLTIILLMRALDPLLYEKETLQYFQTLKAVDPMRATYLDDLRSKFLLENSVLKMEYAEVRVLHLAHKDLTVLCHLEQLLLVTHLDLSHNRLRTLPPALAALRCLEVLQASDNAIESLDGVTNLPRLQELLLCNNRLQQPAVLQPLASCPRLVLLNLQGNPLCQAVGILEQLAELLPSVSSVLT
UniProt Q9UKM9: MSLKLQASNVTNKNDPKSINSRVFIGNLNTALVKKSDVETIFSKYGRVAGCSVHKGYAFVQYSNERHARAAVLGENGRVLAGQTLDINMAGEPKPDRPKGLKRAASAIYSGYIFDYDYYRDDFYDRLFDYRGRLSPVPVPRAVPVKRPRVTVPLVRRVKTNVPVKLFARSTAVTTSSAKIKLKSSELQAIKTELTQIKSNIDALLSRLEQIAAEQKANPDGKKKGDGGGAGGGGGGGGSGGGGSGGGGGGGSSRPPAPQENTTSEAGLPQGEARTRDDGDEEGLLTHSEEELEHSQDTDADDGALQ

What was measured:
Test in all cases: log2 fold change, soluble protein after heating vs DMSO (PISA); higher = thermal stabilisation; K562 lysate, 10 uM; active = over 0.2 and 3.5 SD of the protein, either way, in both replicates (recomputed)
[1] = compound: C#Cc1cccc(Nc2ncnc3cc(OCCOC)c(OCCOC)cc23)c1 [erlotinib]
How it was run: (§1)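 Pellets of K562 cells were dounce-homogenised in PBS pH 7.4 with 1 mM MgCl2, and the crude extract was held at 1 mg/mL protein for a 30 min treatment with 10 μM compound. Aliquots were heated for 3 min over 48°C-58°C and pooled before NP-40 was added to 0.5% at 4°C. The supernatant from 21,000xg for 90 min was quantified by TMTpro 16plex LC-MS/MS with channel sums equalised. Values are reported from duplicates as log-two fold change in thermal stability relative to solvent controls.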

[2] = compound: C/C(=N\NC(=O)C1=CC(=CC=C1)S(=O)(=O)N2CCOCC2)/C3=C(C=CC(=C3)Cl)O
How it was run: as §1

[3] = compound: C1=CC(=CC=C1C2=NC3=C(N2)C=C(C=C3)C(=O)N)OC4=CC=C(C=C4)Cl
How it was run: as §1

[4] = compound: C1=CC2=C(C=CC(=C2)/C=C\3/C(=O)NC(=NCC4=CC=CS4)S3)N=C1
How it was run: as §1

[5] = compound: C1=CC2=NC=CN=C2C=C1/C=C/3\C(=O)NC(=O)S3
How it was run: as §1

[6] = compound: C1=CC=C(C=C1)C2=NC(=C(N2)C3=CC=NC=C3)C4=CC(=C(C=C4)Cl)O
How it was run: as §1

[7] = compound: C1=CC=C2C(=C1)C3=NNC4=CC=CC(=C43)C2=O
How it was run: as §1

[8] = compound: C1CCN(C1)C(=O)NC2=CC=CC(=C2)NC3=NC=C(C(=N3)NCCC4=CN=CN4)Br
How it was run: as §1

[9] = compound: C1CN(CCC1(CC2=CC=C(C=C2)Cl)N)C3=NC=NC4=C3C=CN4
How it was run: as §1

[10] = compound: C1COCCN1CCN2C3=CC=CC=C3N=C2NC(=O)C4=CC(=CC=C4)[N+](=O)[O-] [IRAK-1-4 Inhibitor I]
How it was run: as §1

[11] = compound: C=CC(=O)N1CCC[C@@H](n2nc(-c3ccc(Oc4ccccc4)cc3)c3c(N)ncnc32)C1 [ibrutinib]
How it was run: as §1

[12] = compound: CC(=O)c1cnc2ccc(-c3cc(Cl)c(O)c(Cl)c3)nc2c1N[C@H]1CC[C@H](CN(C)C)CC1
How it was run: as §1

[13] = compound: CC(C)(C)Cn1c(N)nc2ccc(-c3[nH]c(C(C)(C)C)nc3-c3ccc(F)cc3)nc21 [ralimetinib]
How it was run: as §1

[14] = compound: CC(C)(O)CC(=O)NCCn1ccc2ncnc(Nc3ccc(Oc4cccc(C(F)(F)F)c4)c(Cl)c3)c21
How it was run: as §1

[15] = compound: CC(C)C1=C2N=C(C=C(N2N=C1)NCC3=CC=CC=C3)NCCCCCCN
How it was run: as §1

[16] = compound: CC1=C(C(CC(=O)N1)C2=CC=C(C=C2)C(F)(F)F)C(=O)NC3=C(C=C4C(=C3)C=NN4)F
How it was run: as §1

[17] = compound: CC1=C(C2=C(C=C1)C(=O)C3=CC=CC=C3N2CCCN)C
How it was run: as §1

[18] = compound: CC1=C(C=C(C=C1)NC(=O)C2=CC(=CC=C2)C(C)(C)C#N)NC3=CC4=C(C=C3)N=CN(C4=O)C
How it was run: as §1

[19] = compound: CC1=C(C=C(C=C1)NC(=O)C2=CC(=CC=C2)N(C)C)NC(=O)C3=CC=C(C=C3)O
How it was run: as §1

[20] = compound: CC1=CC=C(C=C1)SC2=C3C=C(SC3=CN=C2)C(=O)N
How it was run: as §1

Measured: log2 fold change

RABGAP1L isoform 3 (UniProt Q5R372)
inactive: [1] -0.022 | [2] 0.018 | [3] 0.026 | [4] -0.006 | [5] 0.022 | [6] 0.02 | [7] 0.011 | [8] 0.006 | [9] -0.008 | [10] 0.021 | [11] 0.05 | [12] 0.01 | [13] 0.057 | [14] 0.019 | [15] -0.019 | [16] 0.004 | [17] -0.03 | [18] 0.019 | [19] -0.004 | [20] 0.024

QRICH1 (UniProt Q2TAL8)
inactive: [1] 0.022 | [2] 0.018 | [3] 0.006 | [4] 0.032 | [5] 0.01 | [6] 0.009 | [7] 0.001 | [8] -0.026 | [9] 0.016 | [10] -0.029 | [11] -0.01 | [12] 0.027 | [13] 0.043 | [14] -0.015 | [15] -0.007 | [16] -0.004 | [17] 0.049 | [18] -0.043 | [19] 0.01 | [20] 0.04

RABGAP1L isoform 5 (UniProt Q5R372)
inactive: [1] 0.045 | [2] 0.004 | [3] -0.077 | [4] 0.008 | [5] -0.02 | [6] -0.002 | [7] -0.054 | [8] -0.061 | [9] 0.01 | [10] 0.052 | [11] 0.021 | [12] -0.069 | [13] -0.012 | [14] -0.109 | [15] -0.097 | [16] -0.021 | [17] -0.009 | [18] 0.023 | [19] 0.024 | [20] -0.033

RAB3A (UniProt P20336)
inactive: [1] -0.022 | [2] 0.074 | [3] 0.039 | [4] 0.024 | [5] -0.045 | [6] 0.026 | [7] -0.022 | [8] 0.037 | [9] 0.02 | [10] 0 | [11] -0.009 | [12] 0.073 | [13] 0.008 | [14] 0.014 | [15] -0.038 | [16] 0.077 | [17] -0.072 | [18] -0.017 | [19] -0.067 | [20] 0.179

RANBP10 (UniProt Q6VN20)
inactive: [1] -0.051 | [2] 0.05 | [3] 0.02 | [4] 0.001 | [5] -0.026 | [6] 0.027 | [7] -0.014 | [8] 0.032 | [9] -0.027 | [10] 0.027 | [11] 0.022 | [12] 0.009 | [13] 0.01 | [14] -0.001 | [15] 0.021 | [16] -0.001 | [17] -0.02 | [18] 0.069 | [19] 0.02 | [20] -0.023

RAMAC (UniProt Q9BTL3)
inactive: [1] -0.095 | [2] 0.018 | [3] 0.009 | [4] -0.044 | [5] -0.033 | [6] -0.009 | [7] 0.075 | [8] 0.035 | [9] -0.019 | [10] 0.021 | [11] 0.028 | [12] -0.025 | [13] -0.053 | [14] -0.073 | [15] 0.002 | [16] 0.005 | [17] 0 | [18] -0.01 | [19] -0.03 | [20] 0.026

RAB3IL1 (UniProt E9PK89)
inactive: [1] -0.016 | [2] -0.075 | [3] 0.124 | [4] 0.013 | [5] -0.048 | [6] -0.04 | [7] 0.093 | [8] -0.034 | [9] -0.12 | [10] 0.109 | [11] 0.066 | [12] 0.045 | [13] -0.028 | [14] -0.08 | [15] -0.069 | [16] 0.052 | [17] 0.071 | [18] 0.025 | [19] 0.135 | [20] -0.031

RAB1A (UniProt P62820)
inactive: [1] -0.059 | [2] -0.018 | [3] -0.006 | [4] -0.008 | [5] -0.024 | [6] -0.002 | [7] 0.024 | [8] -0.007 | [9] -0.004 | [10] -0.009 | [11] -0.012 | [12] 0 | [13] 0 | [14] 0.03 | [15] 0.011 | [16] 0.053 | [17] 0.026 | [18] 0 | [19] -0.01 | [20] 0

RAB2B (UniProt Q8WUD1)
inactive: [1] 0.015 | [2] -0.026 | [3] 0.014 | [4] 0.018 | [5] 0.029 | [6] 0.007 | [7] 0.006 | [8] -0.001 | [9] 0.027 | [10] 0.015 | [11] 0.01 | [12] 0.011 | [13] 0.006 | [14] -0.026 | [15] 0.01 | [16] -0.018 | [17] -0.005 | [18] 0.008 | [19] -0.012 | [20] -0.008

RALA (UniProt P11233)
inactive: [1] 0.007 | [2] -0.146 | [3] -0.035 | [4] -0.04 | [5] 0.031 | [6] -0.012 | [7] 0.003 | [8] -0.016 | [9] 0.002 | [10] 0.04 | [11] 0.009 | [12] -0.01 | [13] 0.006 | [14] -0.05 | [15] 0.034 | [16] -0.002 | [17] -0.001 | [18] 0.057 | [19] -0.048 | [20] -0.023

QARS (UniProt P47897)
inactive: [1] 0.024 | [2] 0.054 | [3] -0.024 | [4] 0.027 | [5] 0.009 | [6] 0.011 | [7] -0.042 | [8] -0.006 | [9] 0.012 | [10] -0.003 | [11] -0.014 | [12] 0.001 | [13] 0.027 | [14] 0.015 | [15] 0.005 | [16] -0.039 | [17] 0.014 | [18] -0.013 | [19] 0.019 | [20] 0.032

R3HCC1L, A0A384DVK4
inactive: [1] -0.011 | [2] -0.222 | [3] 0.056 | [4] -0.05 | [5] -0.017 | [6] 0.023 | [7] -0.008 | [8] 0.015 | [9] 0.079 | [10] 0.021 | [11] -0.04 | [12] -0.051 | [13] 0.06 | [14] -0.026 | [15] 0.08 | [16] 0.009 | [17] 0 | [18] 0.011 | [19] 0.012 | [20] -0.003

RAB2A (UniProt P61019)
inactive: [1] -0.023 | [2] -0.045 | [3] -0.008 | [4] 0.013 | [5] 0.01 | [6] -0.03 | [7] 0.045 | [8] 0.033 | [9] -0.097 | [10] 0.002 | [11] 0.022 | [12] 0.019 | [13] 0.024 | [14] 0.033 | [15] -0.02 | [16] 0.013 | [17] 0.051 | [18] -0.036 | [19] -0.015 | [20] -0.045

RABGGTA (UniProt Q92696)
inactive: [1] 0.01 | [2] 0.083 | [3] 0.01 | [4] -0.016 | [5] 0.005 | [6] -0.012 | [7] -0.02 | [8] -0.009 | [9] 0.035 | [10] 0.023 | [11] -0.011 | [12] -0.002 | [13] 0.002 | [14] -0.037 | [15] -0.015 | [16] -0.035 | [17] 0.023 | [18] 0.029 | [19] 0.05 | [20] 0.032

RALY (UniProt Q9UKM9)
inactive: [1] -0.028 | [2] 0.037 | [3] 0.084 | [4] -0.015 | [5] -0.006 | [6] 0.004 | [7] -0.023 | [8] -0.213 | [9] 0.098 | [10] 0.082 | [11] -0.013 | [12] -0.04 | [13] 0.003 | [14] -0.023 | [15] 0.01 | [16] 0.051 | [17] -0.032 | [18] -0.02 | [19] 0.029 | [20] -0.015

RAC1 isoform 2 (UniProt P63000)
inactive: [1] -0.029 | [2] -0.054 | [3] 0.025 | [4] 0.003 | [5] 0.023 | [6] 0.059 | [7] 0.013 | [8] 0.011 | [9] 0.001 | [10] -0.028 | [11] 0.103 | [12] 0.034 | [13] 0 | [14] 0.104 | [15] -0.016 | [16] -0.018 | [17] -0.017 | [18] -0.086 | [19] -0.038 | [20] 0.039

Looked up one by one from the list above (2):
RALA (UniProt P11233)
inactive: [1] 0.007 | [2] -0.146 | [3] -0.035 | [4] -0.04 | [5] 0.031 | [6] -0.012 | [7] 0.003 | [8] -0.016 | [9] 0.002 | [10] 0.04 | [11] 0.009 | [12] -0.01 | [13] 0.006 | [14] -0.05 | [15] 0.034 | [16] -0.002 | [17] -0.001 | [18] 0.057 | [19] -0.048 | [20] -0.023

RAMAC (UniProt Q9BTL3)
inactive: [1] -0.095 | [2] 0.018 | [3] 0.009 | [4] -0.044 | [5] -0.033 | [6] -0.009 | [7] 0.075 | [8] 0.035 | [9] -0.019 | [10] 0.021 | [11] 0.028 | [12] -0.025 | [13] -0.053 | [14] -0.073 | [15] 0.002 | [16] 0.005 | [17] 0 | [18] -0.01 | [19] -0.03 | [20] 0.026
